Test results: paper PMC5642145, “Impact of the structures of macrocyclic Michael acceptors on covalent proteasome inhibition” (Chemical Science, 2017)

Assay: Reaction with excess thiophenol under neutral conditions
Conditions: excess of thiophenol in MeOH or DMSO

Question: Which reaction with thiophenol does the source give for `CCCCCCCCCC(=O)N[C@@H](Cc1ccc(-c2ccccc2)cc1)C(=O)N[C@H]1/C=C/CNC(=O)/C=C/[C@H](C(C)C)NC1=O` [analogue 14] here?
Answer: did not react at all; also recorded: no reaction with PhSH

“Also recorded” adds a separate entry of the source.
